NP40-soluble protein abundance data for 14 targets are collected here from the supplement of paper PMC6411743.

Amino acid sequences for entries named in this document (tags omitted). A change or cut given only in a name is not applied to a line headed by its entry.
UniProt Q12834, whole entry: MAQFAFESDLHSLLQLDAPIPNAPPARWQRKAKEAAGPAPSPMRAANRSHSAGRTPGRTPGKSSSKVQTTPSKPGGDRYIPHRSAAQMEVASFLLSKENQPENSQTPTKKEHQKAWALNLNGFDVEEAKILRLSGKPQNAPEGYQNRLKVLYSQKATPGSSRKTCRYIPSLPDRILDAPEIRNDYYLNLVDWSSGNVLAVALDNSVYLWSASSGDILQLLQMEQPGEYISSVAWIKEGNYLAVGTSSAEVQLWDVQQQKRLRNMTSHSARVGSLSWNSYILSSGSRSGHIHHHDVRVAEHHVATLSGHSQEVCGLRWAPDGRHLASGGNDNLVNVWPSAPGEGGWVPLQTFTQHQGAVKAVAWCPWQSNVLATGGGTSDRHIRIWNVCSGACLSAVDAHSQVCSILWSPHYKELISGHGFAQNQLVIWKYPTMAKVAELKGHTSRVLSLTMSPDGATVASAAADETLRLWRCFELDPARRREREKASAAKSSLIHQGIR
UniProt Q14108: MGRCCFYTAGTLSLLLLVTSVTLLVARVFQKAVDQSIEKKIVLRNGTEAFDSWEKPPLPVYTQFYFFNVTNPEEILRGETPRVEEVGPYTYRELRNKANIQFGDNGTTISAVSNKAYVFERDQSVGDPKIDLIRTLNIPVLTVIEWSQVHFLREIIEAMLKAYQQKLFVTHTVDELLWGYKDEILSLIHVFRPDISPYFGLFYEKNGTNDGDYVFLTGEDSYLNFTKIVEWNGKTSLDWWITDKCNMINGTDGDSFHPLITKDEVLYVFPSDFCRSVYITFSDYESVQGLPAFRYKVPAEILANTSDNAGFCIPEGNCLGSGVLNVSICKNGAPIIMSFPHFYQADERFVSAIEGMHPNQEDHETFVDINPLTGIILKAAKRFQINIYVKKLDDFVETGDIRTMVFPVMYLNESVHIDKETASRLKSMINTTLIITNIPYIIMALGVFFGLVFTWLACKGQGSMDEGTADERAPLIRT
UniProt Q13643: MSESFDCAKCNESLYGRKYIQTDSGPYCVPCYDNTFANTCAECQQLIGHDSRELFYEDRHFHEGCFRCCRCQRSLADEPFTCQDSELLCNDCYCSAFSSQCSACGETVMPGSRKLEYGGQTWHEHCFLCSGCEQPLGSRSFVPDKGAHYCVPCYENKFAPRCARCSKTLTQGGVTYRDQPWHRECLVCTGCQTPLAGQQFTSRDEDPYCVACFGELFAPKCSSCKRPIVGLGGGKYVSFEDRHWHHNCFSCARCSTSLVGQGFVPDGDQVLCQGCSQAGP
UniProt Q00653: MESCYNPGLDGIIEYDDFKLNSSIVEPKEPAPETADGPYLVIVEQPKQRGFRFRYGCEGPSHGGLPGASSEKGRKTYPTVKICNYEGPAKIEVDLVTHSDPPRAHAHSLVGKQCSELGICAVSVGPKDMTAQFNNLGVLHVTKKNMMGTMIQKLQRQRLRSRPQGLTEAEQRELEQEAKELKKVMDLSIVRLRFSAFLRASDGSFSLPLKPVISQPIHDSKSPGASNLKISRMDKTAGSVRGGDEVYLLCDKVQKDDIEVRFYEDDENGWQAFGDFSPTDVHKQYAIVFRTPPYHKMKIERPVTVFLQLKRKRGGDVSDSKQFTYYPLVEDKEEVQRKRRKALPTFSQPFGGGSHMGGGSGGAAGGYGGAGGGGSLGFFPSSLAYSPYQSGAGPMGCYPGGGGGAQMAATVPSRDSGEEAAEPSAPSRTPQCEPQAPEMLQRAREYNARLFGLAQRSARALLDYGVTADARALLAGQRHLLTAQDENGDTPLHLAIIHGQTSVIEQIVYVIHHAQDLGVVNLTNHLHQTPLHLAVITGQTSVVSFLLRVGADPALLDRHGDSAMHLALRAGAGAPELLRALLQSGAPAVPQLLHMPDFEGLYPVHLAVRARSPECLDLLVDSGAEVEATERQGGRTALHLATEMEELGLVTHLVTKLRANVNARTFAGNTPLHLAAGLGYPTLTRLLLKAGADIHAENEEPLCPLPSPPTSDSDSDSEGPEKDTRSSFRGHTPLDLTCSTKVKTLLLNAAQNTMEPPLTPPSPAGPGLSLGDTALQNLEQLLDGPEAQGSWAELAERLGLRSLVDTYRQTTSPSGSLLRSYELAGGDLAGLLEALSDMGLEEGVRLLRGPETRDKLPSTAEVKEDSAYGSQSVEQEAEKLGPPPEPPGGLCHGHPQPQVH
UniProt Q13310, whole entry: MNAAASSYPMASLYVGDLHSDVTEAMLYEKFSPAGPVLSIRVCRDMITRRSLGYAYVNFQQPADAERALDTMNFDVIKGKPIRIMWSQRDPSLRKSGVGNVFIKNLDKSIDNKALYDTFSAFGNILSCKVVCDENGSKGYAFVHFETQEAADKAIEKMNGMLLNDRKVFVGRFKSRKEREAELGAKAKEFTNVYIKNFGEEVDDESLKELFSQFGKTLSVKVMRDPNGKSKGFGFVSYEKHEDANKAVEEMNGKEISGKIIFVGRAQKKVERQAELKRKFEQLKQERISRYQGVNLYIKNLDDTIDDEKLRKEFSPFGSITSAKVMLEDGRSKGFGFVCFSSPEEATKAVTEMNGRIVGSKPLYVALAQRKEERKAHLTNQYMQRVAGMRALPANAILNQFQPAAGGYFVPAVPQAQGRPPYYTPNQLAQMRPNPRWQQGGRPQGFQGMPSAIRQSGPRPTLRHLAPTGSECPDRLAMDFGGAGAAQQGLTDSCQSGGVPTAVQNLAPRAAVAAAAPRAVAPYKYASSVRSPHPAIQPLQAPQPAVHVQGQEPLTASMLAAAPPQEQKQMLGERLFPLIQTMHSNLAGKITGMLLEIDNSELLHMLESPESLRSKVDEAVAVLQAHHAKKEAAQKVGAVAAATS
UniProt Q13907: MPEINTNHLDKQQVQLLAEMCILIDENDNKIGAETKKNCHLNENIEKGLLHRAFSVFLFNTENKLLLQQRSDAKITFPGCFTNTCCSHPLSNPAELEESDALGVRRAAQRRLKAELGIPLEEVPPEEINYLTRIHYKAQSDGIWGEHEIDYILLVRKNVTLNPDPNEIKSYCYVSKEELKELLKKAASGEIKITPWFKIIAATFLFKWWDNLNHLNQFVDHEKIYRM
UniProt Q13795: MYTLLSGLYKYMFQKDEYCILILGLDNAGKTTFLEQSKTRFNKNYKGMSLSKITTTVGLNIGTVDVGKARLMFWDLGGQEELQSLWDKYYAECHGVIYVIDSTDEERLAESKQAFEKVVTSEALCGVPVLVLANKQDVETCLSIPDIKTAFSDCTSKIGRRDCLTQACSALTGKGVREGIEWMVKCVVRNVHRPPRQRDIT
UniProt Q01518, whole entry: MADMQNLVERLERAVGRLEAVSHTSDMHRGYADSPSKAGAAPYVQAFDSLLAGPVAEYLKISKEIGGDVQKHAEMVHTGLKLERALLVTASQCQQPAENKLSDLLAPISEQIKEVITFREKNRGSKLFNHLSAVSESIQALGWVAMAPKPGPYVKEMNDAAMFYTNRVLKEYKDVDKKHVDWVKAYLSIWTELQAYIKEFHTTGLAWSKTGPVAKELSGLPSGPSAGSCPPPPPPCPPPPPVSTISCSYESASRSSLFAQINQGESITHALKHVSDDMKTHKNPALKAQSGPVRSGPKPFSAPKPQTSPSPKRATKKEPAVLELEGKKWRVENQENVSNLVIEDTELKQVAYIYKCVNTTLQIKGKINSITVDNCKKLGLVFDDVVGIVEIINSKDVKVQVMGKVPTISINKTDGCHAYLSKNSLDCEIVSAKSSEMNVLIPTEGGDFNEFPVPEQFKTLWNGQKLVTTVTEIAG
UniProt Q01804: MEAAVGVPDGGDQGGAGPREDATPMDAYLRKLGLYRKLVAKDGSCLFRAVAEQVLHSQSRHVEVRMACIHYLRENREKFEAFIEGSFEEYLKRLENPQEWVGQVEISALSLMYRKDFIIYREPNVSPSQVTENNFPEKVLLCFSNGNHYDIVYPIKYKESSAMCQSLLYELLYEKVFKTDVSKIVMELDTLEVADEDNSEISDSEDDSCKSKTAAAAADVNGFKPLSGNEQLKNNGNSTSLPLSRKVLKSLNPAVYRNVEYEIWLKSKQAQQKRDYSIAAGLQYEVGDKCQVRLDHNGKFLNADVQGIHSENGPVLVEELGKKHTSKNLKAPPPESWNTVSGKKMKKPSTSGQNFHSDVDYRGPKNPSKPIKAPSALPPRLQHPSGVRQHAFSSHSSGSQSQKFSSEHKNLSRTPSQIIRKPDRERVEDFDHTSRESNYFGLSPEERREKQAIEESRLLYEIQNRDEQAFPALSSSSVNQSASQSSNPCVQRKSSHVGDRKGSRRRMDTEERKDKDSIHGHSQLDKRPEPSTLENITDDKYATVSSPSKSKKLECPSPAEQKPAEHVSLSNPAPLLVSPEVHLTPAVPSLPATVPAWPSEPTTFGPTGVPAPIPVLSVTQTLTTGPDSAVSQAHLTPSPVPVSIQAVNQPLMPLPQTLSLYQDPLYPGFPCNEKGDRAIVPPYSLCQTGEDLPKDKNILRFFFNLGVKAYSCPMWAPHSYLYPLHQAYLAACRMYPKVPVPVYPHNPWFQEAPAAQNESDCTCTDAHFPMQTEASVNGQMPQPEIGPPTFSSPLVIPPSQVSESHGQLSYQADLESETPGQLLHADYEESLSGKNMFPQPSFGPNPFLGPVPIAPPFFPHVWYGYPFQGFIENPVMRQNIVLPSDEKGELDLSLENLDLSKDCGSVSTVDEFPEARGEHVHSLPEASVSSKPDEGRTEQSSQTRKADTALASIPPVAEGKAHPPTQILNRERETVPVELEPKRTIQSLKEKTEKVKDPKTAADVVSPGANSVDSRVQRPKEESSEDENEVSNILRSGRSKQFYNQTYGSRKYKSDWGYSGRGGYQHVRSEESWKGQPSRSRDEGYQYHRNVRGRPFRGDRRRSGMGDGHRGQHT
UniProt Q13057: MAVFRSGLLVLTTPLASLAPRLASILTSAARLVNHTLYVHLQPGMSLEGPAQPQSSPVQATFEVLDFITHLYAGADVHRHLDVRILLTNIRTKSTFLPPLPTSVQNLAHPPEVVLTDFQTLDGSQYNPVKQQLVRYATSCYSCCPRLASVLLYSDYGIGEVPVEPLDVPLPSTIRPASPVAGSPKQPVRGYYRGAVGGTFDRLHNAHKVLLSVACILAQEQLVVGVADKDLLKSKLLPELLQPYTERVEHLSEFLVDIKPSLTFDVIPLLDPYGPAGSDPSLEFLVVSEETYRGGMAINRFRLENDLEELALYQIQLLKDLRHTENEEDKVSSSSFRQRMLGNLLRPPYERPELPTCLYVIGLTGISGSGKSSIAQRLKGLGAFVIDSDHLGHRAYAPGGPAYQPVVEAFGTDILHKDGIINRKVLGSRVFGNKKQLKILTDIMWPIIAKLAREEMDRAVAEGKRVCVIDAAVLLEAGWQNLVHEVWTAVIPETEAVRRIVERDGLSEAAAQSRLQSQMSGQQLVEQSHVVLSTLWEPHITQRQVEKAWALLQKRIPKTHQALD
UniProt Q13107: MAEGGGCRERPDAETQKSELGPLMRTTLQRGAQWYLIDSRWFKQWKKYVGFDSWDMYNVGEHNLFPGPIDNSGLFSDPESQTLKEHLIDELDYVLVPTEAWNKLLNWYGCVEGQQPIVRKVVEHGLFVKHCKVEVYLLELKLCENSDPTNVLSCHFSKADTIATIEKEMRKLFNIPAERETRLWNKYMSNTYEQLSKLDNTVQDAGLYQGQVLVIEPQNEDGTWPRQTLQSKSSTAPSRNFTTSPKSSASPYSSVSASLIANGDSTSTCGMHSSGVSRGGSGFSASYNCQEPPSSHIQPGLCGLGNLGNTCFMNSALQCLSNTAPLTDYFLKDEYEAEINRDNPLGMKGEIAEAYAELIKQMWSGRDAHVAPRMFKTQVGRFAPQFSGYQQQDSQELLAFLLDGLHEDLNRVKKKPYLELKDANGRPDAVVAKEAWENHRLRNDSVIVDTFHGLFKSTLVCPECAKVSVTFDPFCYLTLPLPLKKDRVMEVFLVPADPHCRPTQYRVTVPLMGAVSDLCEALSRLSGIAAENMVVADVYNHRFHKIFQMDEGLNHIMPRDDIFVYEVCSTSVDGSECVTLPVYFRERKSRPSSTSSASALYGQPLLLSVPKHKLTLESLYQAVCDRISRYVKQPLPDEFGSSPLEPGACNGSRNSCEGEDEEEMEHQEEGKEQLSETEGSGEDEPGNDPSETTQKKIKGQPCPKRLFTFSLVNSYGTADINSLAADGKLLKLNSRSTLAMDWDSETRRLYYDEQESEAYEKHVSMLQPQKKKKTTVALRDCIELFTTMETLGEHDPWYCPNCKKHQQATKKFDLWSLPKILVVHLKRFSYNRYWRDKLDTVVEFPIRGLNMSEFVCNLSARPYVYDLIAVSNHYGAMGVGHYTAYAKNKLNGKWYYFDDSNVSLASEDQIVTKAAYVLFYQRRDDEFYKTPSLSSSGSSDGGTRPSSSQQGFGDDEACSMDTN

Compound in the test: Nc1nc2c(ncn2[C@@H]2O[C@H](COP(=O)(O)OP(=O)(O)OP(=O)(O)O)[C@@H](O)[C@H]2O)c(=O)[nH]1 [guanosine triphosphate]
The experiment in a line: NP40-soluble protein abundance relative to vehicle (solubility fold change) (ratio); higher = more soluble protein in presence of GTP. The method in brief:
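In three independent experiments, Jurkat crude lysate made by Dounce homogenisation was treated for 10 min at room temperature and then 3 min at 37 °C with eight concentrations ranging from 0.1 to 10 mM. It was then solubilised with 0.8% NP40 plus benzonase for 60 min at 4 °C and ultracentrifuged. The supernatant was TMT-labelled for LC-MS/MS, and each value is the fold change against the detergent-processed vehicle for the same replicate, using vsn-normalised intensities.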

± gives the standard deviation of the averaged measurements. Some of the results follow.

With DHX34 (UniProt Q14147), the NP40-soluble protein abundance is, setting by setting: (concentration: 0.1mM) 1.22 ± 0.17; (concentration: 0.5mM) 1.07 ± 0.12; (concentration: 1mM) 1.11 ± 0.056; (concentration: 2mM) 1.11 ± 0.11; (concentration: 4mM) 1.14 ± 0.04; (concentration: 6mM) 1.13 ± 0.058. Also, the NP40-soluble protein abundance (concentration: 8mM) is 1.25 ± 0.14 and the NP40-soluble protein abundance (concentration: 10mM) stood at 1.09 ± 0.033.

Consider CDC20 (UniProt Q12834), for which the NP40-soluble protein abundance is 1.01 ± 0.065 (concentration: 0.1mM); 1.08 ± 0.13 (concentration: 0.5mM); 1.07 ± 0.13 (concentration: 1mM); 1.03 ± 0.024 (concentration: 2mM); 1.06 ± 0.11 (concentration: 4mM); 1.04 ± 0.058 (concentration: 6mM). Moreover, the NP40-soluble protein abundance by setting is: (concentration: 8mM) 1.08 ± 0.17; (concentration: 10mM) 1.09 ± 0.18.

SCARB2 (UniProt Q14108): the NP40-soluble protein abundance was 0.996 ± 0.061 (concentration: 0.1mM); 0.968 ± 0.036 (concentration: 0.5mM); 1.02 ± 0.11 (concentration: 1mM); 0.949 ± 0.081 (concentration: 2mM); 1.03 ± 0.14 (concentration: 4mM); 0.974 ± 0.076 (concentration: 6mM). The NP40-soluble protein abundance by setting is: (concentration: 8mM) 0.947 ± 0.13; (concentration: 10mM) 1.01 ± 0.14.

Consider FHL3 (UniProt Q13643), for which the NP40-soluble protein abundance by setting is: (concentration: 0.1mM) 1.14 ± 0.13; (concentration: 0.5mM) 1.12 ± 0.22; (concentration: 1mM) 1.09 ± 0.13; (concentration: 2mM) 1.05 ± 0.17; (concentration: 4mM) 1.11 ± 0.2; (concentration: 6mM) 1.08 ± 0.16. Besides, the NP40-soluble protein abundance reads like this: (concentration: 8mM) 1.13 ± 0.15; (concentration: 10mM) 1.17 ± 0.19.

As to UniProt Q00653 and related entries, the NP40-soluble protein abundance was 0.995 ± 0.032 (concentration: 0.1mM); 0.997 ± 0.021 (concentration: 0.5mM); 0.959 ± 0.013 (concentration: 1mM); 0.955 ± 0.037 (concentration: 2mM); 0.96 ± 0.048 (concentration: 4mM); 0.931 ± 0.016 (concentration: 6mM). Moreover, the NP40-soluble protein abundance is, setting by setting: (concentration: 8mM) 0.966 ± 0.04; (concentration: 10mM) 0.94 ± 0.045.

On to UniProt Q13310-3|Q13310, for which the NP40-soluble protein abundance (concentration: 0.1mM) worked out at 0.95 ± 0.054; the NP40-soluble protein abundance (concentration: 0.5mM) stood at 0.998 ± 0.05; the NP40-soluble protein abundance (concentration: 1mM) stood at 0.964 ± 0.025; the NP40-soluble protein abundance (concentration: 2mM) was 0.988 ± 0.042; the NP40-soluble protein abundance (concentration: 4mM) came to 0.987 ± 0.013; the NP40-soluble protein abundance (concentration: 6mM) amounted to 1.033 ± 0.0067. The NP40-soluble protein abundance reads like this: (concentration: 8mM) 1.03 ± 0.025; (concentration: 10mM) 1.06 ± 0.012.

Turning to IDI1 (UniProt Q13907), the NP40-soluble protein abundance is 0.959 ± 0.072 (concentration: 0.1mM); 0.945 ± 0.058 (concentration: 0.5mM); 1.02 ± 0.1 (concentration: 1mM); 0.91 ± 0.044 (concentration: 2mM); 0.943 ± 0.13 (concentration: 4mM); 0.913 ± 0.062 (concentration: 6mM). Also, the NP40-soluble protein abundance runs as follows: (concentration: 8mM) 0.87 ± 0.12; (concentration: 10mM) 0.868 ± 0.088.

As for UniProt Q13795 and related entries, the NP40-soluble protein abundance reads like this: (concentration: 0.1mM) 1.09 ± 0.045; (concentration: 0.5mM) 1.06 ± 0.12; (concentration: 1mM) 0.994 ± 0.044; (concentration: 2mM) 0.968 ± 0.031; (concentration: 4mM) 0.937 ± 0.036; (concentration: 6mM) 0.92 ± 0.065. Further, the NP40-soluble protein abundance reads like this: (concentration: 8mM) 0.87 ± 0.029; (concentration: 10mM) 0.873 ± 0.1.

As for CSTF3 (UniProt Q12996), the NP40-soluble protein abundance was found to be 1.05 ± 0.014 (concentration: 0.1mM); 1.046 ± 0.0039 (concentration: 0.5mM); 1.03 ± 0.029 (concentration: 1mM); 1.07 ± 0.053 (concentration: 2mM); 1.1 ± 0.048 (concentration: 4mM); 1.09 ± 0.039 (concentration: 6mM). Also, the NP40-soluble protein abundance reads like this: (concentration: 8mM) 1.09 ± 0.048; (concentration: 10mM) 1.06 ± 0.031.

For the target UniProt Q01518 and related entries, the NP40-soluble protein abundance runs as follows: (concentration: 0.1mM) 0.974 ± 0.016; (concentration: 0.5mM) 1.01 ± 0.026; (concentration: 1mM) 1 ± 0.039; (concentration: 2mM) 0.973 ± 0.053; (concentration: 4mM) 0.965 ± 0.038; (concentration: 6mM) 0.984 ± 0.05. For the same target, the NP40-soluble protein abundance (concentration: 8mM) was determined as 0.998 ± 0.085 and the NP40-soluble protein abundance (concentration: 10mM) amounted to 0.966 ± 0.071.

Take UniProt Q01804 and related entries: the NP40-soluble protein abundance is, setting by setting: (concentration: 0.1mM) 0.998 ± 0.079; (concentration: 0.5mM) 1 ± 0.089; (concentration: 1mM) 1.04 ± 0.044; (concentration: 2mM) 1.01 ± 0.045; (concentration: 4mM) 1.07 ± 0.044; (concentration: 6mM) 1.03 ± 0.071. For the same target, the NP40-soluble protein abundance (concentration: 8mM) is 1.062 ± 0.0079 and the NP40-soluble protein abundance (concentration: 10mM) was 1.07 ± 0.03.

In the case of UniProt Q13057 and related entries, the NP40-soluble protein abundance is, setting by setting: (concentration: 0.1mM) 0.998 ± 0.055; (concentration: 0.5mM) 1.01 ± 0.046; (concentration: 1mM) 1.02 ± 0.033; (concentration: 2mM) 1.026 ± 0.01; (concentration: 4mM) 0.927 ± 0.035; (concentration: 6mM) 0.953 ± 0.053. In addition, the NP40-soluble protein abundance is 0.893 ± 0.049 (concentration: 8mM) and 0.958 ± 0.037 (concentration: 10mM).

In the case of UniProt Q13303-2, the NP40-soluble protein abundance (concentration: 0.1mM) is 1.05 ± 0.045; the NP40-soluble protein abundance (concentration: 0.5mM) came to 1.06 ± 0.11; the NP40-soluble protein abundance (concentration: 1mM) worked out at 0.954 ± 0.086; the NP40-soluble protein abundance (concentration: 2mM) is 1 ± 0.14; the NP40-soluble protein abundance (concentration: 4mM) turned out to be 0.984 ± 0.11; the NP40-soluble protein abundance (concentration: 6mM) was 0.973 ± 0.14. For the same target, the NP40-soluble protein abundance reads like this: (concentration: 8mM) 0.898 ± 0.024; (concentration: 10mM) 0.904 ± 0.043.

With UniProt Q13107 and related entries, the NP40-soluble protein abundance runs as follows: (concentration: 0.1mM) 1.09 ± 0.14; (concentration: 0.5mM) 1.05 ± 0.16; (concentration: 1mM) 1.04 ± 0.11; (concentration: 2mM) 1.04 ± 0.11; (concentration: 4mM) 1.02 ± 0.092; (concentration: 6mM) 0.966 ± 0.075. Besides, the NP40-soluble protein abundance worked out at 1.01 ± 0.13 (concentration: 8mM) and 0.964 ± 0.14 (concentration: 10mM).
